Measurements published in US7202024B2, “bbc3 Gene promoter and methods for identifying modulators of apoptosis and bbc3 gene expression using a bbc3 gene promoter” (Immunogen Inc., priority 2001, dated 2007).
At least one structure is not confirmed: it was looked up by name or label, or the drawing left a doubt.

Key:
[1] = test system: bbc3 gene promoter; assay: bbc3 gene promoter luciferase reporter assay (pGL3/0.9) in HeLa/Bcl-xL cells; assay type: cell-based, human; details: pGL3/0.9, 20% serum, 50 μM LY294002, 24 hrs
Description: The pGL3/0.9 bbc3 gene promoter luciferase reporter plasmid was transfected into HeLa-Bcl-xL cells. At 24 hrs after transfection, cells were incubated for an additional 24 hrs in the presence of 20% serum (+) with or without 50 μM LY294002, or in the absence of serum (−) with or without 100 ng/ml IGF-1. Luciferase activity was measured and normalized for transfection efficiency (β-galactosidase).
Additional experiments were performed to determine whether the bbc3 gene promoter was regulated by signal transduction pathways known to play a role in cell survival. A bbc3 gene promoter-luciferase reporter construct containing 0.9 kb of the bbc3 gene promoter region, was transfected into HeLa/Bcl-xL cells and the activity of the promoter measured by luciferase assays 48 hours after transfection. […] Thus, a PI-3 kinase dependent pathway controls, at least in part, the activity of the bbc3 gene promoter. […]
Luciferase assays were performed using the Dual-Light System (Tropix) for the combined detection of luciferase and β-galactosidase. […] Luciferase and β-galactosidase activities were measured 24 hours following transfection. […] Cell culture medium was changed to either DMEM containing 20% serum, or DMEM without serum, 24 hours following transfection and luciferase/β-galactosidase levels were measured after an additional 24 hours of incubation. […]

[2] = test system: Bbc3 protein; assay: Western blot of Bbc3 protein in HT29 cells; assay type: cell-based, human; details: 24 hrs
Description: HT29 cells were incubated for one day in the absence of serum (−), and then incubated in media containing either serum, 100 ng/ml IGF-1, 50 ng/ml EGF, or 25 ng/ml PDGF, for 24 hrs. Bbc3 was detected by western blot analysis, followed by sequential probing of the blot with anti-Bax and anti-Bcl-xL antibodies.
HT29 cells were cultured as in FIG. 6B and then incubated for 24 hrs in media containing either serum, 100 ng/ml IGF-1, or 100 ng/ml IGF-1 in the presence of 50 μM LY294002 (added 1 hr prior to IGF-1). Bbc3 was detected by western blot analysis. […]
HT29 cells were incubated for one day in the absence of serum (−), and then incubated in media containing either serum, 50 ng/ml EGF, or 50 ng/ml EGF+30 nM AG1478, for 24 hrs. Bbc3 was detected by western blot analysis.
HT29 cells were cultured in the presence of serum for one day (+) and then incubated for 24 hrs with serum or without serum, or in the presence of serum supplemented with either 10 μM PD98059, 30 μM AG1478, or 50 μM AG1024. Bbc3 was detected by western blot analysis, followed by reprobing of the blot with anti-Bax.
A mouse monoclonal antibody, KM140, was made against a recombinant GST-Bbc3 fusion protein. […] Cell lysates were prepared, electrophoresed (100 to 200 μg per lane) on 4–20% polyacrylamide reducing gels, and analyzed by western blotting as described previously (Chittenden, T., et al., EMBO J. 14:5589–96 (1995)).

[3] = test system: bbc3 mRNA; assay: Northern blot of bbc3 mRNA in primary murine thymocytes; assay type: cell-based; details: 1 μM dexamethasone, 3 or 6 hours

O=c1cc(N2CCOCC2)oc2c(-c3ccccc3)cccc12 [LY294002]
bbc3 gene promoter activity (luciferase) in the presence of serum [1]: sufficient to induce activity of the bbc3 gene promoter | ability of serum to suppress Bbc3 protein levels ([2]; HT29 cells in serum, 50 μM LY294002, 10 μM PD98059, 30 μM AG1478 or 50 μM AG1024): significantly impaired the ability of serum to suppress Bbc3 protein levels | ability of IGF-1 to suppress Bbc3 levels ([2]; serum-starved HT29 cells, 100 ng/ml IGF-1 + 50 μM LY294002 (added 1 hr prior)): impaired the ability of IGF-1 to suppress Bbc3 levels

C[C@@H]1C[C@H]2[C@@H]3CCC4=CC(=O)C=C[C@]4(C)[C@@]3(F)[C@@H](O)C[C@]2(C)[C@@]1(O)C(=O)CO [dexamethasone]
bbc3 mRNA expression [3]: induced bbc3 mRNA expression
